# Test results taken from PMC7819943, “Rice protein-binding microarrays: a tool to detect cis-acting elements near promoter regions in rice”.
# Amino acid sequences for entries named in this document (tags omitted).
# UniProt Q0JBA9, entry or part of it: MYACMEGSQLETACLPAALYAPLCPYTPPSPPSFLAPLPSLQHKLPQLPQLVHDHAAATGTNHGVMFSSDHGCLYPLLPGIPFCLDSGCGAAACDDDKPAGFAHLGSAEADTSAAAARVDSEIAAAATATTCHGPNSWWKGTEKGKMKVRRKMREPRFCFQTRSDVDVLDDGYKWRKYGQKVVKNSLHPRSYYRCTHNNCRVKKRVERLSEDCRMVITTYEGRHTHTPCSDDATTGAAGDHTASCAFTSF
# This is one part of the list.
# Molecular target: OsWRKY34 (Oryza sativa, UniProt Q0JBA9 1-250)
# Assay: protein-binding microarray (RPBM); PBS, 2% BSA, 51.3 ng/ul salmon testes DNA, 50 uM zinc acetate, 200 nM TF, 25 C, 1 h; high values mean tight binding
# Details: protein: recombinant; tags: N-terminal polyhistidine and DsRed monomer fusion (pET32a); label: CyDye5-dUTP incorporated in the synthesized complementary strand; 3' TTTTT single-stranded linker to array surface; dsDNA, one strand shown
# Method in brief: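 A custom Agilent array was converted to double-stranded form by primer extension with Cy5-dUTP and blocked with 2% BSA. Protein at 200 nM in PBS with 2% BSA, salmon testes DNA and 50 µM zinc acetate was applied for 1 h at 25 °C, followed by washing. The proteins were polyhistidine–DsRed N-terminal fusions of transcription factors, expressed in E. coli BL21-CodonPlus and Ni–NTA-purified. The binding signal is per-feature fluorescence intensity (arbitrary units) from an Axon 4000B scanner.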
row,Sequence,binding signal
1,CCCGAAGTCTATTATGCATGGTGAACTGGTGGTGTTCCGACGGAGTCACCTAGTGCAG,9200 fluorescence intensity (a.u.)
2,TAGTAGGTGTGGACTAAGTGTAGTATGTTTGACCGGTTGTCGGAGTCACCTAGTGCAG,15200 fluorescence intensity (a.u.)
3,CTGGGTGTGGGTCAACTTTGCGACATCATTACGTCCCCAACGGAGTCACCTAGTGCAG,8270 fluorescence intensity (a.u.)
4,ACGGCTCGCATCTTCACTTGCCAATGTGAGAATCTTGTGTCGGAGTCACCTAGTGCAG,8070 fluorescence intensity (a.u.)
5,CTCCCACCTACCCACGTCTGACAACCTGGCCCCACACCCACGGAGTCACCTAGTGCAG,8120 fluorescence intensity (a.u.)
6,TTTGGCTGCCGACACGTCCCCTTGGTTGCAACAAACCTCTCGGAGTCACCTAGTGCAG,8680 fluorescence intensity (a.u.)
7,CACCACGCCGCTCGCCGCCCTCGCGGCTTCCTGCCATCCGCGGAGTCACCTAGTGCAG,10600 fluorescence intensity (a.u.)
8,GTGCCACGCAGTATCACTCTTGTCCTGTCGCCTTCGATTTCGGAGTCACCTAGTGCAG,9040 fluorescence intensity (a.u.)
9,TGAGGTGAGGGCAGGGGCAGGGGCAGGGCGGACTGGCCAACGGAGTCACCTAGTGCAG,8680 fluorescence intensity (a.u.)
10,TCCATCCGGCGAGCGGAGCAGGGGAGGGGAGGGGATCTTGCGGAGTCACCTAGTGCAG,14300 fluorescence intensity (a.u.)
11,TTTTGAGGATGTCTCTCTCTTCAAATCTCGTTTTTTTCTTCGGAGTCACCTAGTGCAG,8620 fluorescence intensity (a.u.)
12,CACCTTCTCGGGCCATCCTACGCCCCGTCCCGGCGCAAGCCGGAGTCACCTAGTGCAG,11800 fluorescence intensity (a.u.)
13,GACGAATGGTCAAACGTTGTTTAAAAAGTCAACGGCGTCACGGAGTCACCTAGTGCAG,12700 fluorescence intensity (a.u.)
14,CTCCGATTGGGCAGATGGACTTGTTACCACGGGGAGGAGGCGGAGTCACCTAGTGCAG,8090 fluorescence intensity (a.u.)
15,GGACCCCAACCACTATGCCGTAATTTAGCGTGTTTTCCCGCGGAGTCACCTAGTGCAG,9170 fluorescence intensity (a.u.)
16,ACAACACATTCATACTAAAGTTACACTGTTCTATATTTTGCGGAGTCACCTAGTGCAG,8520 fluorescence intensity (a.u.)
17,TTAAACAACCTAAAAAAAGTCGTCCTTTTTTTTTCTGCAACGGAGTCACCTAGTGCAG,8120 fluorescence intensity (a.u.)
18,GGTTCGCTATCCTCGCGCTCTTGTCTCCACCACCCAAAATCGGAGTCACCTAGTGCAG,9230 fluorescence intensity (a.u.)
19,GCGATTTGCCCTCTTGCACGCGTCGCCCCGCGCACCGCACCGGAGTCACCTAGTGCAG,8880 fluorescence intensity (a.u.)
20,TAATTTTGGTCTGAAGTTTTTTTTTTGTTGTTTTCGTTGTCGGAGTCACCTAGTGCAG,9160 fluorescence intensity (a.u.)
21,CGTATTTGTTCCATCTCGTATTCGCTCCGTATCTGTATTCCGGAGTCACCTAGTGCAG,10600 fluorescence intensity (a.u.)
22,TATCCCTTCACCAAAACAGAGGAAAAAAGAATCCACTCAACGGAGTCACCTAGTGCAG,8570 fluorescence intensity (a.u.)
23,GATATTTTGTTTATTTGTGTTCCTTCTTAAGTCCTTTATTCGGAGTCACCTAGTGCAG,8440 fluorescence intensity (a.u.)
24,AGCAGGAGGGGTGGGGCACATACTCGCCATCTTCTTGCACCGGAGTCACCTAGTGCAG,15900 fluorescence intensity (a.u.)
25,GGCAACATCTCCATCGTTTTGGCCCATGTACCCGATTACACGGAGTCACCTAGTGCAG,11200 fluorescence intensity (a.u.)
26,AGGTAATCCCATTGTTCTAGTTCTTTCAGATTTAATATGTCGGAGTCACCTAGTGCAG,9690 fluorescence intensity (a.u.)
27,CTATGATTATGGCTTTGTACCTGTCACGCTGACATCACTCCGGAGTCACCTAGTGCAG,8100 fluorescence intensity (a.u.)

row,Sequence,binding signal
1,TTTCTTCTCAACTCGCCTCAGCTGCATCCTCATCTTGGTCCGGAGTCACCTAGTGCAG,10600 fluorescence intensity (a.u.)
2,CAATTTTTTTTCGTTGTCACGGTTCGTCTTCCTTAAGTTCCGGAGTCACCTAGTGCAG,14400 fluorescence intensity (a.u.)
3,GAAGCCGGCGCCGCTTTCTTCCGCTCCACTCCACCGGCGCCGGAGTCACCTAGTGCAG,8450 fluorescence intensity (a.u.)
4,ATTGTGTGGTTTCTCCCTCTCTGGTTCTACCGCTTCTCCTCGGAGTCACCTAGTGCAG,8160 fluorescence intensity (a.u.)
5,ACCGGTCTCATCGCTAACCACCAACACCTAATCGTCATTACGGAGTCACCTAGTGCAG,9800 fluorescence intensity (a.u.)
6,CGAGCCGTTCTGATCCTTCGCCATGCCCTACCTGCCGCGCCGGAGTCACCTAGTGCAG,8350 fluorescence intensity (a.u.)
7,GTGGTAGGGGTGGAGATAAAGTTGGACTCTGTAACCCGGCCGGAGTCACCTAGTGCAG,11300 fluorescence intensity (a.u.)
8,CTTTCTATTCATGCCGCCATTGCTATATGTTGCTTATTTACGGAGTCACCTAGTGCAG,10100 fluorescence intensity (a.u.)
9,ATGTCGGCGGCGGGCGGCGGCGGCGGCGTGGGGAAGGTGGCGGAGTCACCTAGTGCAG,9040 fluorescence intensity (a.u.)
10,CGACCACCTCGCCGCGCTCGACCATCTCCGCCGGCAGCACCGGAGTCACCTAGTGCAG,10700 fluorescence intensity (a.u.)
11,GCCACTGATCCGTCCCAAAGCCTTCAAATTACTCAAATCCCGGAGTCACCTAGTGCAG,8760 fluorescence intensity (a.u.)
12,TATTAATACTATCTCTTTGACTTTTTGGGTGCATAATATACGGAGTCACCTAGTGCAG,13000 fluorescence intensity (a.u.)
13,ATCGTGACTTTCTTAGACTAGTAAGTAATGCTTTCCTGCCCGGAGTCACCTAGTGCAG,8970 fluorescence intensity (a.u.)
14,GTTGGCCTAATCCTACCAAATCTTTTGAAATTTCTACGTTCGGAGTCACCTAGTGCAG,8890 fluorescence intensity (a.u.)
15,CCGGTGATGTTTTTATTTTTCTTCCGGTTCTTTTTCTCAACGGAGTCACCTAGTGCAG,12300 fluorescence intensity (a.u.)
16,GGTACGGGCTCCGCGCCGACGTGCGGAGCGTCAACCTGTCCGGAGTCACCTAGTGCAG,9260 fluorescence intensity (a.u.)
17,GAATCCATCGACACGTTTCTTTCGTCAGAACAGTGTCCGTCGGAGTCACCTAGTGCAG,8430 fluorescence intensity (a.u.)
18,CCTCTCGATGGATATAAATACGCCTCTAGCTCTAACTTTTCGGAGTCACCTAGTGCAG,8350 fluorescence intensity (a.u.)
19,GAGCTCCACCTCCTCGCGTGCCCACGCCATCCATGGCTTCCGGAGTCACCTAGTGCAG,8080 fluorescence intensity (a.u.)
20,GGAGAGGAGCGGGCGGGTTGGTGTTGGGAAGGGAGGGATGCGGAGTCACCTAGTGCAG,18200 fluorescence intensity (a.u.)
21,AGTATCAAGCGATACAGGAGCTCCTCACTCCATCTCTCTACGGAGTCACCTAGTGCAG,8330 fluorescence intensity (a.u.)
22,TGTAGTTTGTTGCTTTCTGGATATTTACTACTCCCTCCATCGGAGTCACCTAGTGCAG,8220 fluorescence intensity (a.u.)
23,CCTACCTACAATTTGCCCATGCTACTGTTACACTGTTCCCCGGAGTCACCTAGTGCAG,10400 fluorescence intensity (a.u.)
24,GCCAGCTATAACCAATTCACCTTCGTCCCTTCTTAAATATCGGAGTCACCTAGTGCAG,8320 fluorescence intensity (a.u.)
25,AACGAGGGAGAGGGGTTGGGAAAAGGGGCATCCTAGCTGCCGGAGTCACCTAGTGCAG,11900 fluorescence intensity (a.u.)
26,GAGTGGCCGTCCGCCGCTCCGCGCCTCCGCTCTGCTACCTCGGAGTCACCTAGTGCAG,9880 fluorescence intensity (a.u.)
27,TTCGGTTGTTCTCATTCACTCTCCACCAACCTTGCCACCACGGAGTCACCTAGTGCAG,9940 fluorescence intensity (a.u.)

# An excerpt of these results, tab-delimited.
row	Sequence	binding signal
19	GAGCTCCACCTCCTCGCGTGCCCACGCCATCCATGGCTTCCGGAGTCACCTAGTGCAG	8080 fluorescence intensity (a.u.)
25	AACGAGGGAGAGGGGTTGGGAAAAGGGGCATCCTAGCTGCCGGAGTCACCTAGTGCAG	11900 fluorescence intensity (a.u.)
